Source: patent US20150299614A1, “IMPROVEMENTS IN OR RELATING TO ORGANIC COMPOUNDS” (Givaudan, S.A., priority 2012, published 2015)

Assay: Odour description / strength
Details: ethanol solution of Example 2a

SMILES | Odour
COc1cc(C=O)ccc1O [Vanillin] | vanilla
CCOc1cc(C=NOC)ccc1O [Cpd I (R1 = Et, R2 = Me), 3-ethoxy-4-hydroxybenzaldehyde O-methyl oxime] | Spicy vanilla floral
